In the supplement of paper PMC10849652:
The other results are listed elsewhere or left out.

Amino acid sequences for entries named in this document (tags omitted). A change or cut given only in a name is not applied to a line headed by its entry.
UniProt Q9UBK9, whole entry, looked up: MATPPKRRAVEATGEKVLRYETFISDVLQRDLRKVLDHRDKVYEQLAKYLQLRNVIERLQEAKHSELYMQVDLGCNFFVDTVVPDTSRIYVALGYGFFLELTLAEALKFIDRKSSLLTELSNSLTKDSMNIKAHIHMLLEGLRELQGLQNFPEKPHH
UniProt Q9UHP3: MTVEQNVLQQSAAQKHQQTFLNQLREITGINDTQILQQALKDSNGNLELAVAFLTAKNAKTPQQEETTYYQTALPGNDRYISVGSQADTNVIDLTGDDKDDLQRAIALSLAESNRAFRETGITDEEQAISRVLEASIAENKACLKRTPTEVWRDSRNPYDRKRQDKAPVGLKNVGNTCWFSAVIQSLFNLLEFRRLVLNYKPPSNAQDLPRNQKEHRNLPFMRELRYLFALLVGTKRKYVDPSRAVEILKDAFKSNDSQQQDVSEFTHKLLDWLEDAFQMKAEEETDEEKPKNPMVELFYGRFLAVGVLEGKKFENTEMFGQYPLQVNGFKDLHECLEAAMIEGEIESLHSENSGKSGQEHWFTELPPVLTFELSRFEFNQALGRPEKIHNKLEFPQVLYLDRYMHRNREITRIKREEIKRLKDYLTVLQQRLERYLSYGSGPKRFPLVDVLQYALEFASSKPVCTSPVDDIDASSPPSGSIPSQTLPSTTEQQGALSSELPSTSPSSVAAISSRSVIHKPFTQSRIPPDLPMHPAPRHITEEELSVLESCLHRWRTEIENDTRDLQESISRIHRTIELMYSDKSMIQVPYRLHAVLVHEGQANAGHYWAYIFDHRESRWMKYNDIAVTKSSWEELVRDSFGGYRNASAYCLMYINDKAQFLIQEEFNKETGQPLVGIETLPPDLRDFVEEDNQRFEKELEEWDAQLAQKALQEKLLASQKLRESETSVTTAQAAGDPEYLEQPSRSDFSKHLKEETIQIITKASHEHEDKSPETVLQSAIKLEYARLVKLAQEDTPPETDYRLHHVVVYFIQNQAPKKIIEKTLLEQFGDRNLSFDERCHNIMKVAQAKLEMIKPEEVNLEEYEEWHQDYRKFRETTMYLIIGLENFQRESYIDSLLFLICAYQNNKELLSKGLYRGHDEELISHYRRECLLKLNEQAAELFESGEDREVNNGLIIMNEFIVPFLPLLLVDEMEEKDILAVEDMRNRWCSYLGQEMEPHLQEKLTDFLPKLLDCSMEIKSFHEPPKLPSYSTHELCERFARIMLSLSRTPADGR
UniProt Q9C0B0: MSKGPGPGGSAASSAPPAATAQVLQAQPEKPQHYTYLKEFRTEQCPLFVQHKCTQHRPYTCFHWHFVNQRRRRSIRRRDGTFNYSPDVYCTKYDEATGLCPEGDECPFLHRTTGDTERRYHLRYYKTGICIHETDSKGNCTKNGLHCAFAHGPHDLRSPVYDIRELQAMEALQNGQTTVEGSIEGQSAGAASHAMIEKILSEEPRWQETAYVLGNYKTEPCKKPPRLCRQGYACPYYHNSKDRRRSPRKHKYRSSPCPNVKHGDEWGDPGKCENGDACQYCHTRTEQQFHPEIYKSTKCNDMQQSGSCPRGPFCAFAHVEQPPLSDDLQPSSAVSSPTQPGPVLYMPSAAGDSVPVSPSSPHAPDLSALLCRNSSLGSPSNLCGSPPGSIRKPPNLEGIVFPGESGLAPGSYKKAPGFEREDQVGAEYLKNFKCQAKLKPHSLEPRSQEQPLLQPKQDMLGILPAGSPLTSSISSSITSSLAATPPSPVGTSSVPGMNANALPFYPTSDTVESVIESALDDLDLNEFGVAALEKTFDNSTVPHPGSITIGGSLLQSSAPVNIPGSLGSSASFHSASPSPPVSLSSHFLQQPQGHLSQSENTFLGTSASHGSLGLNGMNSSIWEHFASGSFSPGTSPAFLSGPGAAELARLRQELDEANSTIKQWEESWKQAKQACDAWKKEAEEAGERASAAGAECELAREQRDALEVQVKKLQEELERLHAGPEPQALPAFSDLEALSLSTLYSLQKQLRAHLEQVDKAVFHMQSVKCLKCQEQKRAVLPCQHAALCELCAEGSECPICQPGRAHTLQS
UniProt O95155, whole entry, looked up: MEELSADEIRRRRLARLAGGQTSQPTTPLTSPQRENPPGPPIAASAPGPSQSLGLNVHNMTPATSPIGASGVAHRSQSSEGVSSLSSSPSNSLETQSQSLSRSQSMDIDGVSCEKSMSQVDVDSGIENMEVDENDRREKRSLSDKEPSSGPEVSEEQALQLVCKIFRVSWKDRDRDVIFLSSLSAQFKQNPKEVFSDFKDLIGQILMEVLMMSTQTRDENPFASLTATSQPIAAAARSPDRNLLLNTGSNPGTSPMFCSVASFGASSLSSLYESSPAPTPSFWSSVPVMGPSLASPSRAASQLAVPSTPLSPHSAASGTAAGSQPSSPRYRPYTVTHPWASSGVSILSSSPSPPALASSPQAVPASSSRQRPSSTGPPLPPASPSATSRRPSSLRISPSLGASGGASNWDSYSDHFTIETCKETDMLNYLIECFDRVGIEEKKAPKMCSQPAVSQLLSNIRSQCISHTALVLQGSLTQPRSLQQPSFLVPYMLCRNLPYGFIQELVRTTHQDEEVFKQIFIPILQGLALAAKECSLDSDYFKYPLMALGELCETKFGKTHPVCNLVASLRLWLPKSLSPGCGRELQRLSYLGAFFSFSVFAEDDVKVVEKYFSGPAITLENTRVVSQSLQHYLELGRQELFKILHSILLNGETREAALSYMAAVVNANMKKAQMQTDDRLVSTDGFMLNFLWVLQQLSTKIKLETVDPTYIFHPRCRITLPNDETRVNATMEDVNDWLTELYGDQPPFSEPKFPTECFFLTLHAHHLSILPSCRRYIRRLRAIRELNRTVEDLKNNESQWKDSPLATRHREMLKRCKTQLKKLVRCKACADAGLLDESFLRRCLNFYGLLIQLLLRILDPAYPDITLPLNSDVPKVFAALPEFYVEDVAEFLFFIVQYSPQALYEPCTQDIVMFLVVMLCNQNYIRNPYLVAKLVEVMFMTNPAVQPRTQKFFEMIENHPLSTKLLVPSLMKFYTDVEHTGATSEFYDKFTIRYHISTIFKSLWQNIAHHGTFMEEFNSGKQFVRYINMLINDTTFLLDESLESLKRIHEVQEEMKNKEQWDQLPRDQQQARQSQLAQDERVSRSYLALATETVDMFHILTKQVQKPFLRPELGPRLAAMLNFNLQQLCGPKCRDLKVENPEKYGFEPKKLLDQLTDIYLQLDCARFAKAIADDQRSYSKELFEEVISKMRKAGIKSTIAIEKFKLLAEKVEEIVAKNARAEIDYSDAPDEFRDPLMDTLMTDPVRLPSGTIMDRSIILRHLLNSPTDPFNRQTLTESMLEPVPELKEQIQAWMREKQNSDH
UniProt Q969X6: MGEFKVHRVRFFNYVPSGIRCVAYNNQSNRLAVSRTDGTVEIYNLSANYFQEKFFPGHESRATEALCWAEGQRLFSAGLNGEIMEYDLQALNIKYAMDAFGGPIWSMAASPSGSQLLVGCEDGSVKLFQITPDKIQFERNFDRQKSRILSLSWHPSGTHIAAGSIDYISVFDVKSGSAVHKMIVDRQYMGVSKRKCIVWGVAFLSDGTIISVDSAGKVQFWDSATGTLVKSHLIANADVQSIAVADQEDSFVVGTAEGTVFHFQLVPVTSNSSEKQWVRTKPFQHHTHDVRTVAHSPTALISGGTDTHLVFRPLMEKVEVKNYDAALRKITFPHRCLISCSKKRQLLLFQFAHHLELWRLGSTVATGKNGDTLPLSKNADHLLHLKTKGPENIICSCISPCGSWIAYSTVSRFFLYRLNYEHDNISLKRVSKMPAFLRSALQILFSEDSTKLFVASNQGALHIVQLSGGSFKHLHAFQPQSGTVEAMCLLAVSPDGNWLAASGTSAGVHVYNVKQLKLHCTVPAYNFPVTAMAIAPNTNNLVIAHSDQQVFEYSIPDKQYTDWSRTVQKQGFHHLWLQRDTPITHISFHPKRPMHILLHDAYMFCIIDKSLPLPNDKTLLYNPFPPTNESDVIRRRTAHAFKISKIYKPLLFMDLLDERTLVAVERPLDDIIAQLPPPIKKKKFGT
UniProt Q93008, whole entry, looked up: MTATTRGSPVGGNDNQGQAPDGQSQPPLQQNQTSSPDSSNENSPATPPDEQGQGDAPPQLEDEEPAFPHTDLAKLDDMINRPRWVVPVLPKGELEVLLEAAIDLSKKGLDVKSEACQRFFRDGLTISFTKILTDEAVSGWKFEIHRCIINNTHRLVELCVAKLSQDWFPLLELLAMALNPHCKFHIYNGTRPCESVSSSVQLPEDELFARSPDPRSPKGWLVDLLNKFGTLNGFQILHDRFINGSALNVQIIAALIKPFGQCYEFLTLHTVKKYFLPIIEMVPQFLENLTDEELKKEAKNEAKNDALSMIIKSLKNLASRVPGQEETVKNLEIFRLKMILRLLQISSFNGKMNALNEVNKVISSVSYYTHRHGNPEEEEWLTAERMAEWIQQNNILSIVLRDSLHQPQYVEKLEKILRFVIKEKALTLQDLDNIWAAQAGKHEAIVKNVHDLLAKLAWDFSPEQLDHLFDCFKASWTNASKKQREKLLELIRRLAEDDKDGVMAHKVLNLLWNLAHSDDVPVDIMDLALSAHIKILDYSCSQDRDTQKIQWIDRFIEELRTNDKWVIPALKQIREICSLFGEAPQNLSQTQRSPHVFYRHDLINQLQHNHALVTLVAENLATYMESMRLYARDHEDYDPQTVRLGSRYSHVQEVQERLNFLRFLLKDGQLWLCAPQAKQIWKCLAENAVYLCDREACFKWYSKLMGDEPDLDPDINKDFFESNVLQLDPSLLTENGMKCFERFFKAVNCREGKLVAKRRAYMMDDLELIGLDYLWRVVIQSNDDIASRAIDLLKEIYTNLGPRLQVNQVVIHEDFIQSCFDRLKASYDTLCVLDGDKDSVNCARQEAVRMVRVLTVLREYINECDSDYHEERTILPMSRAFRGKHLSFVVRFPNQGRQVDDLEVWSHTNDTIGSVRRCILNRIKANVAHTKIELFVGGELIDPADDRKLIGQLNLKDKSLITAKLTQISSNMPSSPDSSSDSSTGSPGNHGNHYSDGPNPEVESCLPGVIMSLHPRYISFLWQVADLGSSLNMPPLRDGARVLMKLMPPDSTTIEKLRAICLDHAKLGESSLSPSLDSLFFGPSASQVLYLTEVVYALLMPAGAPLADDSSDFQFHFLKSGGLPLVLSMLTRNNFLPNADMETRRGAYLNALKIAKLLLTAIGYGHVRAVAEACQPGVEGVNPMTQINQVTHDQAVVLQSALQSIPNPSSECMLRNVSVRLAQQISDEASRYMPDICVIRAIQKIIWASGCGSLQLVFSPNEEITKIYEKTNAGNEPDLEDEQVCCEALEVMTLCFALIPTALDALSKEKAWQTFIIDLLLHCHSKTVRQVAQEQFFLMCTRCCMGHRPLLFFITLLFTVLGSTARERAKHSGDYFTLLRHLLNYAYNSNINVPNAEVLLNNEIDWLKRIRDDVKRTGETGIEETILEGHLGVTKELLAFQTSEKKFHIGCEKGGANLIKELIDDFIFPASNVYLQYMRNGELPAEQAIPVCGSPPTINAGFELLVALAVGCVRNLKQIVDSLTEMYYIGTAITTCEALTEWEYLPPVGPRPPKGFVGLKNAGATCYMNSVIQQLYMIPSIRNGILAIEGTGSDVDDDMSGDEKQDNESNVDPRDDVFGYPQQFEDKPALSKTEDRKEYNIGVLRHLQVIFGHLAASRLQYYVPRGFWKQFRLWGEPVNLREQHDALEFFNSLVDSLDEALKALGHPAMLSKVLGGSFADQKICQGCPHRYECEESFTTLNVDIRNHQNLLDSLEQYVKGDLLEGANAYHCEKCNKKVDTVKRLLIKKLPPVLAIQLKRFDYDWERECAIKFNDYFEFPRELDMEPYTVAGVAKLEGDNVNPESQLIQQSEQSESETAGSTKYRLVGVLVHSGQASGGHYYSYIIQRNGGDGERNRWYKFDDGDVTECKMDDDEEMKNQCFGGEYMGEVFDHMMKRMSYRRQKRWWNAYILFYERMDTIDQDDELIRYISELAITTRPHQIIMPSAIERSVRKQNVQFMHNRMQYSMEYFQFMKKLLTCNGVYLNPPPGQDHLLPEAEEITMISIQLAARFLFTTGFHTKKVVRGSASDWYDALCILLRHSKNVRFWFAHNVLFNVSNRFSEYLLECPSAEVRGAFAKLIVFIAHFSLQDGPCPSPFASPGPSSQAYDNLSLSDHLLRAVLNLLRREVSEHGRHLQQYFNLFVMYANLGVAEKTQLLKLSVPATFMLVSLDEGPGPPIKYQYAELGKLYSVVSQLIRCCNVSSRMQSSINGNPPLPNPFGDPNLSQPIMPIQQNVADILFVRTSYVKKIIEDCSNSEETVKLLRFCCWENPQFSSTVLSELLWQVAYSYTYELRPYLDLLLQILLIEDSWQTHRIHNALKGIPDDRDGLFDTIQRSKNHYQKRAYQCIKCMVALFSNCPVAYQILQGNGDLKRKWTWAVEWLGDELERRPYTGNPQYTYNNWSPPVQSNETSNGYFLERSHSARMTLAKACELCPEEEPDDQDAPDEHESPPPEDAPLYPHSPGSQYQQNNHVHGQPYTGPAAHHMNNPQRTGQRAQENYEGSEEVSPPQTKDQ

Tests used:
Assay in all cases: log2 fold change, soluble protein after heating vs DMSO (PISA); higher = thermal stabilisation; K562 cells, 10 uM, 30 min; active = over 0.2 and 3.5 SD of the protein, either way, in both replicates (recomputed)
[1] = compound: COC1=CC=C(C=C1)CN2C=CC3=C2C=C(C=C3)C(=O)NO
Outline: (§1)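 K562 cells at 2×10^6 cells/mL were treated with 10 μM compound for 30 min. Aliquots were heated for 3 min across 48°C-58°C, pooled, and extracted in PBS with 0.5% NP-40 at 4°C; soluble protein was the supernatant after 21,000xg for 90 min. Soluble protein was quantified by TMTpro 16plex LC-MS/MS with channel sums equalised, and reported as log2 fold change in thermal stability against DMSO controls, with values from duplicates.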

filanesib = compound: CON(C)C(=O)N1N=C(c2cc(F)ccc2F)S[C@@]1(CCCN)c1ccccc1 [filanesib]
Outline: as §1

zotarolimus = compound: CO[C@H]1C[C@@H]2CC[C@@H](C)[C@@](O)(O2)C(=O)C(=O)N2CCCC[C@H]2C(=O)O[C@H]([C@H](C)C[C@@H]2CC[C@H](n3cnnn3)[C@H](OC)C2)CC(=O)[C@H](C)/C=C(\C)[C@@H](O)[C@@H](OC)C(=O)[C@H](C)C[C@H](C)/C=C/C=C/C=C/1C [zotarolimus]
Outline: as §1

idasanutlin = compound: COc1cc(C(=O)O)ccc1NC(=O)[C@@H]1N[C@@H](CC(C)(C)C)[C@](C#N)(c2ccc(Cl)cc2F)[C@H]1c1cccc(Cl)c1F [idasanutlin]
Outline: as §1

alisertib = compound: COc1cc(Nc2ncc3c(n2)-c2ccc(Cl)cc2C(c2c(F)cccc2OC)=NC3)ccc1C(=O)O [alisertib]
Outline: as §1

[2] = compound: COc1cc2nc(-c3cc(F)ccc3O)nc(N[C@@H]3CNC[C@H]3C(C)(C)O)c2cc1OC
Outline: as §1

gefitinib = compound: COc1cc2ncnc(Nc3ccc(F)c(Cl)c3)c2cc1OCCCN1CCOCC1 [gefitinib]
Outline: as §1

[3] = compound: COc1cccc2cc(-c3nc([C@H]4CC[C@H](C(=O)O)CC4)n4ncnc(N)c34)[nH]c12
Outline: as §1

lapatinib = compound: CS(=O)(=O)CCNCc1ccc(-c2ccc3ncnc(Nc4ccc(OCc5cccc(F)c5)c(Cl)c4)c3c2)o1 [lapatinib]
Outline: as §1

pictilisib = compound: CS(=O)(=O)N1CCN(Cc2cc3nc(-c4cccc5[nH]ncc45)nc(N4CCOCC4)c3s2)CC1 [pictilisib]
Outline: as §1

[4] = compound: CS(=O)(=O)c1ccc(-c2cnc(N)c(C(=O)Nc3ccccc3)n2)cc1
Outline: as §1

crizotinib = compound: C[C@@H](Oc1cc(-c2cnn(C3CCNCC3)c2)cnc1N)c1c(Cl)ccc(F)c1Cl [crizotinib]
Outline: as §1

[5] = compound: C[C@@H]1COCCN1C2=NC(=NC(=C2)C3(CC3)S(=O)(=O)C)C4=C5C=CNC5=CC=C4
Outline: as §1

[6] = compound: C[C@H](C1=CC=C(C=C1)C(=O)NC2=C3C=CNC3=NC=C2)N
Outline: as §1

gandotinib = compound: Cc1cc(Nc2cc(CN3CCOCC3)c3nc(C)c(Cc4ccc(Cl)cc4F)n3n2)n[nH]1 [gandotinib]
Outline: as §1

[7] = compound: Cc1cc(SCc2sc(-c3ccc(C(F)(F)F)cc3)nc2C)ccc1OCC(=O)O
Outline: as §1

doramapimod = compound: Cc1ccc(-n2nc(C(C)(C)C)cc2NC(=O)Nc2ccc(OCCN3CCOCC3)c3ccccc23)cc1 [doramapimod]
Outline: as §1

ispinesib = compound: Cc1ccc(C(=O)N(CCCN)[C@@H](c2nc3cc(Cl)ccc3c(=O)n2Cc2ccccc2)C(C)C)cc1 [ispinesib]
Outline: as §1

tozasertib = compound: Cc1cc(Nc2cc(N3CCN(C)CC3)nc(Sc3ccc(NC(=O)C4CC4)cc3)n2)n[nH]1 [tozasertib]
Outline: as §1

duvelisib = compound: C[C@H](Nc1ncnc2nc[nH]c12)c1cc2cccc(Cl)c2c(=O)n1-c1ccccc1 [duvelisib]
Outline: as §1

Measured: log2 fold change

UXT isoform 2 (UniProt Q9UBK9)
inactive: filanesib 0.001 | zotarolimus -0.067 | idasanutlin 0.026 | alisertib -0.016 | [2] 0.033 | gefitinib 0.049 | [3] -0.025 | lapatinib 0.077 | pictilisib 0.25 | [4] 0.063 | crizotinib 0.056 | [5] 0.184 | [6] 0.006 | gandotinib 0.255 | [7] -0.034 | doramapimod 0.017 | ispinesib -0.035
active: [1] 0.473

UTP3 (UniProt Q9NQZ2)
inactive: [1] -0.058 | filanesib 0.368 | zotarolimus 0.125 | idasanutlin 0.26 | alisertib -0.09 | [2] -0.074 | [3] -0.067 | lapatinib 0.204 | pictilisib -0.06 | [4] 0.015 | crizotinib 0.061 | [5] -0.494 | [6] 0.363 | gandotinib 0.17 | [7] -0.04 | doramapimod 0.099 | ispinesib -0.144

USP1 (UniProt O94782)
inactive: [1] 0.107 | filanesib -0.094 | zotarolimus 0.062 | idasanutlin 0.21 | gefitinib 0.141 | [4] 0.147 | crizotinib -0.063 | [5] -0.097 | [6] -0.104 | tozasertib 0.081 | doramapimod -0.152 | ispinesib -0.012

USP32 (UniProt Q8NFA0)
inactive: [1] -0.268 | filanesib 0.103 | zotarolimus 0.066 | idasanutlin 0.035 | [2] 0.07 | gefitinib -0.062 | lapatinib 0.042 | pictilisib 0.223 | [4] -0.033 | crizotinib 0.069 | [5] 0.091 | [6] 0.206 | duvelisib -0.037 | gandotinib 0.171 | tozasertib 0.142 | [7] 0.002 | doramapimod -0.078 | ispinesib -0.012

UXS1 isoform 2 (UniProt Q8NBZ7)
inactive: [1] -0.084 | filanesib -0.004 | zotarolimus -0.013 | idasanutlin -0.033 | alisertib -0.031 | [2] -0.053 | gefitinib 0.006 | [3] 0.134 | lapatinib 0.121 | [4] 0.043 | crizotinib 0.169 | [5] -0.004 | [6] -0.082 | duvelisib 0.01 | tozasertib 0.017 | [7] -0.065 | doramapimod 0.04 | ispinesib -0.024

Reprinted at random: 2 records from the list
UXS1 isoform 2 (UniProt Q8NBZ7)
inactive: [1] -0.084 | filanesib -0.004 | zotarolimus -0.013 | idasanutlin -0.033 | alisertib -0.031 | [2] -0.053 | gefitinib 0.006 | [3] 0.134 | lapatinib 0.121 | [4] 0.043 | crizotinib 0.169 | [5] -0.004 | [6] -0.082 | duvelisib 0.01 | tozasertib 0.017 | [7] -0.065 | doramapimod 0.04 | ispinesib -0.024

USP32 (UniProt Q8NFA0)
inactive: [1] -0.268 | filanesib 0.103 | zotarolimus 0.066 | idasanutlin 0.035 | [2] 0.07 | gefitinib -0.062 | lapatinib 0.042 | pictilisib 0.223 | [4] -0.033 | crizotinib 0.069 | [5] 0.091 | [6] 0.206 | duvelisib -0.037 | gandotinib 0.171 | tozasertib 0.142 | [7] 0.002 | doramapimod -0.078 | ispinesib -0.012

Next part:

USP25 isoform 3 (UniProt Q9UHP3)
inactive: [1] -0.011 | filanesib 0.037 | zotarolimus 0.014 | idasanutlin -0.039 | alisertib 0.027 | [2] 0.004 | gefitinib 0.032 | [3] 0.022 | lapatinib 0.001 | pictilisib 0.018 | [4] 0.042 | crizotinib -0.003 | [5] -0.017 | [6] -0.062 | gandotinib -0.024 | [7] 0.021 | doramapimod 0.007 | ispinesib -0.025

UNK (UniProt Q9C0B0)
inactive: [1] 0.002 | filanesib 0.052 | zotarolimus 0.038 | idasanutlin 0.049 | alisertib -0.04 | [2] 0.197 | gefitinib 0.059 | [3] -0.069 | lapatinib -0.037 | pictilisib -0.032 | [4] 0.021 | crizotinib 0.075 | [6] -0.114 | duvelisib -0.038 | gandotinib -0.016 | tozasertib 0.118 | [7] -0.012 | doramapimod -0.174

UGGT1 (UniProt Q9NYU2)
inactive: [1] -0.041 | filanesib -0.008 | zotarolimus 0.012 | idasanutlin -0.014 | alisertib -0.07 | [2] 0.009 | gefitinib -0.006 | [3] -0.01 | lapatinib 0.035 | pictilisib -0.005 | [4] 0.013 | crizotinib 0 | [5] 0.012 | [6] 0.009 | gandotinib 0.005 | [7] 0.016 | doramapimod 0.017 | ispinesib 0.012

UBE4B isoform 4 (UniProt O95155)
inactive: [1] 0.04 | filanesib -0.009 | zotarolimus -0.008 | idasanutlin -0.031 | alisertib -0.035 | [2] 0.021 | gefitinib -0.048 | [3] 0.021 | lapatinib -0.01 | pictilisib 0.063 | [4] 0.016 | crizotinib -0.013 | [5] 0.012 | [6] -0.015 | gandotinib -0.048 | [7] 0.019 | doramapimod -0.048 | ispinesib 0

UCHL5 (UniProt Q9Y5K5)
inactive: [1] 0.023 | filanesib -0.035 | zotarolimus 0.026 | idasanutlin -0.044 | alisertib -0.048 | [2] 0.04 | gefitinib 0.008 | [3] -0.031 | lapatinib -0.023 | pictilisib 0.012 | [4] 0.023 | crizotinib -0.066 | [5] 0 | [6] -0.005 | gandotinib -0.116 | [7] 0.064 | doramapimod -0.015 | ispinesib -0.056

UBTF (UniProt P17480)
inactive: [1] -0.402 | filanesib -0.032 | zotarolimus -0.143 | idasanutlin 0.218 | alisertib -0.269 | [3] -0.128 | pictilisib -0.154 | [4] 0 | crizotinib 0.204 | [6] 0.135 | gandotinib -0.072 | doramapimod 0.195 | ispinesib -0.114

UTP4 (UniProt Q969X6)
inactive: [1] -0.05 | filanesib -0.043 | zotarolimus -0.017 | idasanutlin -0.034 | alisertib -0.095 | [2] 0.132 | gefitinib 0 | [3] 0.029 | lapatinib -0.006 | pictilisib 0.035 | [4] -0.013 | crizotinib 0.019 | [5] 0.055 | [6] 0.004 | gandotinib 0.004 | [7] -0.056 | doramapimod 0.012 | ispinesib 0.066

USP13 (UniProt Q92995)
inactive: [1] -0.046 | filanesib -0.017 | zotarolimus 0.021 | idasanutlin 0.001 | alisertib 0.003 | [2] -0.226 | gefitinib 0.044 | [3] 0.033 | lapatinib 0.169 | [4] 0.086 | crizotinib -0.004 | [6] 0.108 | duvelisib -0.015 | tozasertib 0.007 | [7] 0.039 | doramapimod 0.009 | ispinesib 0.196

USP48 isoform 8 (UniProt Q86UV5)
inactive: [1] 0.155 | filanesib -0.075 | zotarolimus 0.089 | idasanutlin -0.03 | alisertib 0.12 | [2] -0.267 | gefitinib 0.093 | [3] -0.018 | lapatinib 0.002 | pictilisib 0.016 | [4] 0.03 | crizotinib -0.036 | [5] 0.066 | [6] -0.133 | gandotinib -0.197 | [7] 0.212 | doramapimod -0.1 | ispinesib -0.07

USP3 (UniProt Q9Y6I4)
inactive: [1] 0.131 | filanesib -0.246 | zotarolimus 0.009 | idasanutlin -0.039 | alisertib 0.085 | [2] -0.201 | gefitinib -0.007 | [3] -0.014 | lapatinib 0.053 | pictilisib 0.027 | [4] 0.065 | crizotinib -0.131 | [5] 0.043 | [6] -0.26 | gandotinib -0.246 | [7] 0.155 | doramapimod -0.023 | ispinesib -0.04

URM1 isoform 2 (UniProt Q9BTM9)
inactive: [1] 0.034 | filanesib 0.05 | idasanutlin -0.047 | alisertib -0.025 | gefitinib 0.1 | [3] -0.04 | pictilisib 0.097 | [4] -0.097 | crizotinib 0.039 | duvelisib -0.043 | gandotinib 0.164 | tozasertib -0.083 | [7] 0.029 | doramapimod -0.004 | ispinesib 0.102

USP9X (UniProt Q93008)
inactive: [1] -0.02 | filanesib -0.017 | zotarolimus 0.018 | idasanutlin -0.096 | alisertib -0.02 | [2] 0.029 | gefitinib -0.007 | [3] -0.008 | lapatinib -0.027 | pictilisib -0.033 | [4] -0.008 | crizotinib -0.159 | [5] -0.024 | [6] 0.033 | gandotinib -0.125 | [7] 0.053 | doramapimod 0.016 | ispinesib -0.058

USP30 (UniProt Q70CQ3)
inactive: [1] 0.019 | filanesib -0.024 | zotarolimus 0.001 | idasanutlin 0.006 | alisertib -0.332 | [2] -0.026 | gefitinib 0.024 | [3] -0.046 | lapatinib 0.019 | [4] 0.145 | crizotinib 0.159 | [5] -0.037 | [6] 0.166 | duvelisib 0.104 | tozasertib 0.1 | [7] -0.094 | doramapimod -0.016 | ispinesib -0.038
